{
  "source": "patent EP0503388A1",
  "about": "“Pregna-21-oic acid esters” (TEIKOKU SEIYAKU KABUSHIKI KAISHA, priority 1991, dated 1992)",
  "test_system": "back of volunteers (10 healthy adult males)",
  "experiment": "Vasoconstrictive activity: skin paleness after application of 0.1 % ointment in fin chamber",
  "format": "in vivo",
  "conditions": "0.1 % by weight in white petrolatum base; compared with reference ointments of prednisolone and dexamethasone",
  "description": "The compounds of the present invention were tested for the vasoconstrictive activity in the following manner.\nEach of the compounds (1) to (10) of the present invention was mixed in a white petrolatum base (white petrolatum : liquid paraffin = 9 : 1) at a concentration of 0.1 % by weight for use as a test sample. Commercially available steroidal medicaments (ointments of prednisolone and dexamethasone) were used at a concentration of 0.1 % by weight of the steroid as a reference sample. A commercially available ointment base was used as a control.\nTo one portion of the back of volunteers (10 healthy adult males) was applied each sample. About 20 mg of each sample was put in an aluminum part of fin chamber, which was applied. Two hours and four hours after the application, samples were simultanously removed. […] The result was evaluated based on the following criteria (-) Paleness was not observed. (±) Paleness was slightly obseved. (+) Paleness was clearly observed.",
  "note": "At least one structure is not confirmed: it was looked up by name or label, or the drawing left a doubt.",
  "data": [
    {"smiles": "COC(=O)[C@H](OC(=O)C(C)(C)C)[C@@]1(O)CC[C@H]2[C@@H]3CCC4=CC(=O)C=C[C@]4(C)[C@H]3[C@@H](O)C[C@@]21C", "note": "[Compound (4)]", "values": [
      {"measurement": "vasoconstrictive activity (skin paleness), overall result in words", "result": "excellent pharmacological activity"}
    ]}
  ]
}
